Assay: Cyanine dye titration with carboxymethylcellulose (J-aggregate fluorescence)

CCN1C(=Cc2sc3ccc(Cl)cc3[n+]2CC)Sc2ccc(Cl)cc21.[I-] [cyanine dye of Formula I]
optimal cyanine dye concentration for fluorescence emission (20 μM and 40 μM CMC): 40 µM
limit of detection for cyanine dye (estimated, CMC as a scaffold): 3 µM
limit of quantitation for cyanine dye (estimated, CMC as a scaffold): 5 µM

Source: US20080044805A1, “Biopolymer-Dye Complex and Use as a Bioassay” (STC.UNM, priority 2006, published 2008)
